The text below walks through data of PubChem BioAssay AID330 (DTP/NCI, 2004).

In this assay the test system is P388 leukemia ip, CD2F1 mice, survival T/C. The assay can be described thus: NCI In Vivo Anticancer Drug Screen. Data for tumor model P388 Leukemia (intraperitoneal) in CD2F1 (CDF1) mice. The note with it: T/C endpoint: median survival time, higher T/C = longer survival.
Where [1] appears, read: dose: 200.0 mg/kg/injection, schedule: Q01DX009 (ip), vehicle: saline with Tween-80.
Where [2] appears, read: dose: 240.0 mg/kg/injection, schedule: Q01DX005 (ip), vehicle: Klucel (hydroxypropylcellulose) (HPC).
Setting [3] is: dose: 100.0 mg/kg/injection, schedule: Q01DX009 (ip), vehicle: Klucel (hydroxypropylcellulose) (HPC).
The mark [4] stands for this setting: dose: 50.0 mg/kg/injection, schedule: Q01DX005 (ip), vehicle: Klucel (hydroxypropylcellulose) (HPC).
[5] abbreviates: dose: 100.0 mg/kg/injection, schedule: Q01DX005 (ip), vehicle: Klucel (hydroxypropylcellulose) (HPC).
Setting [6] is: dose: 100.0 mg/kg/injection, schedule: Q01DX005 (ip), vehicle: saline.
Where [7] appears, read: dose: 12.5 mg/kg/injection, schedule: Q01DX009 (ip), vehicle: Klucel (hydroxypropylcellulose) (HPC).
[8] abbreviates: dose: 200.0 mg/kg/injection, schedule: Q01DX009 (ip), vehicle: Klucel (hydroxypropylcellulose) (HPC).
Where [9] appears, read: dose: 240.0 mg/kg/injection, schedule: Q01DX005 (ip), vehicle: saline with Tween-80.
[10] abbreviates: dose: 100.0 mg/kg/injection, schedule: Q01DX009 (ip), vehicle: saline with Tween-80.

The list does not hold the whole screen: it gathers tests that were run many times, whatever their T/C, doses with no T/C, and many T/C values between a quarter and a half above the control. Further doses and runs are listed elsewhere. T/C gives the treated animals as a percentage of the vehicle group. Some entries give survivors of the animals treated and no T/C: the source files T/C as zero there, which appears to mark a toxic dose or a test without result, not a measured value. Some doses without a T/C left all or most animals alive at the check, yet need not have been tolerated: the source hardly ever lists a survival T/C far under the control, and the zero likely stands for such cases as well. Counts of survivors are from the toxicity check (mostly the fifth day) where no day follows; animals may have died later. Schedules are NCI's codes, read here as Q, the interval in days (D) or hours (H), X, the number of doses. Additions like (4×) give the number of equal values in this list. Where survival is the endpoint, the PubChem record calls one and a half times the control and up active, and a quarter to a half above the control has no call in these data; cut-offs in other NCI protocols can differ. Some T/C values carry the count of animals alive at the toxicity check (mostly the fifth day); without a count, all were alive then. Some entries were tested several times; the results are listed from low to high.

With `C(=N\N1CCCCCC1)/c1ccc2c(c1)OCO2`, under setting [1], the survivor count is 5 of 6.

In the case of `Cc1ccc2c(c1)C=CC(C#N)N2C(=O)Oc1ccccc1` (stereo not drawn), the survivor count (dose: 12.5 mg/kg/injection, schedule: Q01DX009 (ip), vehicle: saline) was 6 of 6; the survivor count (dose: 50.0 mg/kg/injection, schedule: Q01DX009 (ip), vehicle: suspension in saline) is 6 of 6; the survivor count (dose: 100.0 mg/kg/injection, schedule: Q01DX009 (ip), vehicle: suspension in saline) is 6 of 6; the survivor count (dose: 200.0 mg/kg/injection, schedule: Q01DX009 (ip), vehicle: suspension in saline) is 6 of 6.

Regarding `COC(=O)c1ccc(C(=O)OC)c2nc3ccccc3nc12`, under setting [2], the survivor count is on record as 4 of 6.

`O=C(O)c1ccccc1SCCO`: the survivor count under setting [3] is on record as 3 of 6.

Consider `O=C1C(=O)c2ccc3c(c2-c2cc4c(cc21)OCO4)OCO3`, for which the survivor count under setting [2] is 6 of 6.

For the compound `CCO/C=C/C=C1C(=O)N(C)C(=O)N(C)C1=O`, where the note is “dose: 400.0 mg/kg/injection, schedule: Q01DX009 (ip), vehicle: saline + Tween-80 + alcohol”, the survivor count is 3 of 6.

Take `NC(=O)C1CCCN1C(=O)C1CCCN(CCCCCCN2CCCC(C(=O)N3CCCC3C(N)=O)C2)C1` (stereo not drawn): the survivor count (dose: 240.0 mg/kg/injection, schedule: Q01DX005 (ip), vehicle: saline) is 3 of 6.

Consider `CCCCCCCC[N+](C)([O-])CCCCCC[N+](C)([O-])CCCCCCCC` (stereo not drawn), for which, under “dose: 200.0 mg/kg/injection, schedule: Q01DX009 (ip), vehicle: saline”, the survivor count was 1 of 6.

Regarding `CCOC(=N)N1[C@H](C)[C@@H]1C`, the survivor count runs as follows: under setting [4], 3 of 6; under setting [5], 0 of 6; under setting [6], 0 of 6.

Regarding `O=C1C=CC(=Nc2ccc(N(CCCl)CCCl)cc2)c2ccccc21`, the T/C reads like this: under setting [7], 131 % of control; (dose: 25.0 mg/kg/injection, schedule: Q01DX009 (ip), vehicle: Klucel (hydroxypropylcellulose) (HPC)) 128 % of control; (dose: 50.0 mg/kg/injection, schedule: Q01DX009 (ip), vehicle: Klucel (hydroxypropylcellulose) (HPC)) 140 % of control. Further, under setting [8], the survivor count was 5 of 6.

On to `N=c1c2[nH]cnc2ncn1O`, for which the survivor count under setting [2] was 1 of 6.

As for `COc1ccc(/C=C/CC2Cc3cc4c(cc3OC2c2ccc(OC)cc2)OCO4)cc1` (stereo not drawn), the survivor count is 6 of 6 (2×) (dose: 15.0 mg/kg/injection, schedule: Q01DX005 (ip), vehicle: saline with Tween-80); 6 of 6 (dose: 30.0 mg/kg/injection, schedule: Q01DX005 (ip), vehicle: saline with Tween-80); 6 of 6 (dose: 60.0 mg/kg/injection, schedule: Q01DX005 (ip), vehicle: saline with Tween-80); 6 of 6 (dose: 120.0 mg/kg/injection, schedule: Q01DX005 (ip), vehicle: saline with Tween-80); 6 of 6 under setting [9].

For the compound `CC1(C)O[C@@H]2C[C@H]3[C@@H]4CCC5=CC(=O)C=C[C@]5(C)[C@@]4(F)[C@@H](O)C[C@]3(C)[C@]2(C(=O)CO)O1`, the survivor count (dose: 50.0 mg/kg/injection, schedule: Q01DX009 (ip), vehicle: saline with Tween-80) is reported as 6 of 6.

As for `CN1C2=NCCN2C(=O)c2cc(Cl)ccc21`, under setting [8], the survivor count is 0 of 6.

In the case of `N=C(N)c1ccc(-c2[nH]c3cc(C(=N)N)ccc3c2N)cc1`, the survivor count runs as follows: (dose: 100.0 mg/kg/injection, schedule: Q04DX003 (ip), vehicle: saline) 0 of 6; (dose: 200.0 mg/kg/injection, schedule: Q04DX003 (ip), vehicle: saline) 0 of 6; (dose: 400.0 mg/kg/injection, schedule: Q04DX003 (ip), vehicle: saline) 0 of 6.

As to `CC(C)(C)OC(=O)NC(Cc1ccccc1)C(=O)O` (stereo not drawn), under setting [7], the survivor count is 6 of 6.

Turning to `Clc1ccc(C[P+](c2ccccc2)(c2ccccc2)c2ccccc2)cc1Cl`, the survivor count by setting is: under setting [10], 0 of 6; under setting [1], 0 of 6; (dose: 400.0 mg/kg/injection, schedule: Q01DX009 (ip), vehicle: saline with Tween-80) 0 of 6.

On to `OCC[N+]12CN3CN(CN(C3)C1)C2`, for which the T/C (dose: 400.0 mg/kg/injection, schedule: Q01DX009 (ip), vehicle: saline) was 126 and 142 % of control; the T/C (dose: 600.0 mg/kg/injection, schedule: Q01DX009 (ip), vehicle: saline) is 136 % of control.

With `COc1ccc(OC)c(NC(=O)Sc2c(Cl)c(Cl)nc(Cl)c2Cl)c1`, the T/C runs as follows: under setting [3], 128 % of control; under setting [8], 126 % of control.

With `COc1cccc2c1NC(OC)C1CC(/C=C/C(=O)N(C)C)=CN1C2=O` (stereo not drawn), the T/C is 135 % of control (dose: 40.0 micrograms/kg/injection, schedule: Q01DX005 (ip), vehicle: saline with Tween-80); 129 and 132 % of control (dose: 80.0 micrograms/kg/injection, schedule: Q01DX005 (ip), vehicle: saline with Tween-80); 133 and 137 % of control (dose: 160.0 micrograms/kg/injection, schedule: Q01DX005 (ip), vehicle: saline with Tween-80); 136 % of control (dose: 320.0 micrograms/kg/injection, schedule: Q01DX005 (ip), vehicle: saline with Tween-80). Further, the survivor count is, setting by setting: (dose: 640.0 micrograms/kg/injection, schedule: Q01DX005 (ip), vehicle: saline with Tween-80) 2 of 6; (dose: 1280.0 micrograms/kg/injection, schedule: Q01DX005 (ip), vehicle: saline with Tween-80) 0 of 6.

As to `NC(Cc1cccc(NP(=S)(N2CC2)N2CC2)c1)C(=O)O` (stereo not drawn), the T/C (dose: 50.0 mg/kg/injection, schedule: Q04DX003 (ip), vehicle: saline) was 131 % of control. In addition, the survivor count (dose: 600.0 mg/kg/injection, schedule: Q04DX003 (ip), vehicle: saline) was 6 of 6.

As to `O=C(Nc1c(Cl)cc(Cl)cc1Cl)ON=C1CCCCC1`, the survivor count under setting [9] is 2 of 6.

Consider `CS(=O)(=O)OCCCl`, for which the T/C is 134 % of control under setting [10]; 125 and 128 % of control [4 of 6 alive] (dose: 150.0 mg/kg/injection, schedule: Q01DX005 (ip), vehicle: saline with Tween-80); 133 % of control (dose: 150.0 mg/kg/injection, schedule: Q01DX009 (ip), vehicle: saline with Tween-80). In addition, the survivor count was 1 of 6 under setting [1] and 0 of 6 (dose: 400.0 mg/kg/injection, schedule: Q01DX001 (ip), vehicle: saline with Tween-80).

For the compound `CN1C2C=C(c3ccccc3)CC1CC2` (stereo not drawn), the survivor count is given as 0 of 6 (dose: 6.0 mg/kg/injection, schedule: Q01DX005 (ip), vehicle: saline); 0 of 6 (dose: 6.25 mg/kg/injection, schedule: Q01DX005 (ip), vehicle: Klucel (hydroxypropylcellulose) (HPC)); 0 of 6 (dose: 12.0 mg/kg/injection, schedule: Q01DX005 (ip), vehicle: saline); 0 of 6 (dose: 12.5 mg/kg/injection, schedule: Q01DX005 (ip), vehicle: Klucel (hydroxypropylcellulose) (HPC)); 0 of 6 (dose: 25.0 mg/kg/injection, schedule: Q01DX005 (ip), vehicle: Klucel (hydroxypropylcellulose) (HPC)); 0 of 6 (dose: 25.0 mg/kg/injection, schedule: Q01DX005 (ip), vehicle: saline). For the same compound, the survivor count is, setting by setting: under setting [4], 0 of 6; (dose: 50.0 mg/kg/injection, schedule: Q01DX005 (ip), vehicle: saline) 0 of 6; under setting [5], 0 of 6; under setting [6], 0 of 6; (dose: 200.0 mg/kg/injection, schedule: Q01DX005 (ip), vehicle: Klucel (hydroxypropylcellulose) (HPC)) 0 of 6; (dose: 200.0 mg/kg/injection, schedule: Q01DX005 (ip), vehicle: saline) 0 of 6.
